Data on two molecules can be found in paper PMC10011139.

Sequences of proteins named here, by UniProt entry; tags and fusion partners are left off.
UniProt P51532: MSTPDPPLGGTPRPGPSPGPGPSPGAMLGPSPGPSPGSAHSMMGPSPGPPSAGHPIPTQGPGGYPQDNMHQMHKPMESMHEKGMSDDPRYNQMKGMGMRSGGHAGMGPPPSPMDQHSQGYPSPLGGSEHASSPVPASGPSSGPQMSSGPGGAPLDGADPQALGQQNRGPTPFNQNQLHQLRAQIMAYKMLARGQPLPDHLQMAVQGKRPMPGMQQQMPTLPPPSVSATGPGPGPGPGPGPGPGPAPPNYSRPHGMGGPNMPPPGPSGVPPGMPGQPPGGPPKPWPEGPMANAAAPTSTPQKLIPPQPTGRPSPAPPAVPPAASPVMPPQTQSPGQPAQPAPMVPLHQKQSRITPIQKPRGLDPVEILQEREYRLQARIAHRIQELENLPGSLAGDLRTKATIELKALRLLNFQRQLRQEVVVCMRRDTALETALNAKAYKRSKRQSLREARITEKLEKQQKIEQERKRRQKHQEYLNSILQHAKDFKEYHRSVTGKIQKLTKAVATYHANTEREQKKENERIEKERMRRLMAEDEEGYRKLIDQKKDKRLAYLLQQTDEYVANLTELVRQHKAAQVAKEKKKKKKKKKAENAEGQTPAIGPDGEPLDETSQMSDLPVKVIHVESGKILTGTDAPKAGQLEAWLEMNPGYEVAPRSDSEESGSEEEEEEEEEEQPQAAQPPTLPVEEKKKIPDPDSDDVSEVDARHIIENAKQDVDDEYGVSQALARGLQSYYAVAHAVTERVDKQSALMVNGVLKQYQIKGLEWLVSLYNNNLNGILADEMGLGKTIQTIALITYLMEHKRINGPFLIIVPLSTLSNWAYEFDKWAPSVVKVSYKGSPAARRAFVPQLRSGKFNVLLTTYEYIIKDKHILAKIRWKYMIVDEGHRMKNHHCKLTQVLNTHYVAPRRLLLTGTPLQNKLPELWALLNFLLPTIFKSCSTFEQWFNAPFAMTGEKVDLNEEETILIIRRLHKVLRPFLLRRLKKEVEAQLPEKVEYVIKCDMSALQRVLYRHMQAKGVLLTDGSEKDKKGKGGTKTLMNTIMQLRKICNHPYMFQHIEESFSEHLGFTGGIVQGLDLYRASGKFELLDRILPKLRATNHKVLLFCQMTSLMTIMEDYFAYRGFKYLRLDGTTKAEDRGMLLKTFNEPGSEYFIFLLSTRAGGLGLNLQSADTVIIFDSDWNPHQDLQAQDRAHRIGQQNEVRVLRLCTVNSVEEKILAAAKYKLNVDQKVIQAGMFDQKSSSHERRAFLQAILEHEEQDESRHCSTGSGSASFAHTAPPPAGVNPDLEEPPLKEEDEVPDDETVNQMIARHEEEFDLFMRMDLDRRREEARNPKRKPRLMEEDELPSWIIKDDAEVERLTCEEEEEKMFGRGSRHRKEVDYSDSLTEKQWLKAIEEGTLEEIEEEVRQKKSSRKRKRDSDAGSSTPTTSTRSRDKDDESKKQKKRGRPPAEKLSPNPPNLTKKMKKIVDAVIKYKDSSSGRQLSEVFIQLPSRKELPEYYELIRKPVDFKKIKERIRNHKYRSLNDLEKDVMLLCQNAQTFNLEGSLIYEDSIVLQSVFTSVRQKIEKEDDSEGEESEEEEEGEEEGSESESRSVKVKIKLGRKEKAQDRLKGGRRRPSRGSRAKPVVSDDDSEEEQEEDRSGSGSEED

Results are given in words; binding and its absence hold for the method and conditions named. Binding seen in cells or lysates may run through a third protein. Some results given as binding are weak or reduced against the parent protein; the word gives no strength. For some assays here: Sequences can lack the tags named with a protein.

The target in assay [1] is SMARCA4 (endogenous, HEK 293T) (human (endogenous in HEK 293T)) (UniProt P51532). As to the kind of experiment: co-IP; HEK 293T cells expressing Flag-tagged HNF1A; co-immunoprecipitation of SMARCA4 in the presence of benzonase.
In assay [2] the target is T1, HA-tagged HNF1A, P20823.
T1 chain: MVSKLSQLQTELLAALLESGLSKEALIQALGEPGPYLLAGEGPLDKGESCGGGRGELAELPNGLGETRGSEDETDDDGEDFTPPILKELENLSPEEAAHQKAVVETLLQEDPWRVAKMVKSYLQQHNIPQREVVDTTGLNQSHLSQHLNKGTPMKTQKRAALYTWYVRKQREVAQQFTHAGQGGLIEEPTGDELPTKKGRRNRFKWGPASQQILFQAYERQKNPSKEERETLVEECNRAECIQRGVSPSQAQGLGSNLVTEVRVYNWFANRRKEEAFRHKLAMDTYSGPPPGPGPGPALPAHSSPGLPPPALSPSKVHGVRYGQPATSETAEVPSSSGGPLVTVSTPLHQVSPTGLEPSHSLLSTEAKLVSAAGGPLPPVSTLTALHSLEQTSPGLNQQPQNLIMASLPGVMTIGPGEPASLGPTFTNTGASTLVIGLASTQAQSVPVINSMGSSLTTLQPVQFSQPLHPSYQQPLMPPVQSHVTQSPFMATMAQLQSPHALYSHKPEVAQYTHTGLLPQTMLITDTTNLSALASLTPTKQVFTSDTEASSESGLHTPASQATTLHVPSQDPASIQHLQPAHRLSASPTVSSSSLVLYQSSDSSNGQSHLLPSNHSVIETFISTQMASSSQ
As to the kind of experiment: co-IP; reciprocal immunoprecipitations of tagged HNF1A and HNF1B in WT and SMARCA2/4 double-knockout HEK 293T cells (the knockout reduced HNF1A homo- and heterodimerization, not HNF1B homodimerization). Particulars: remark: other sources report otherwise.

With “Flag-tagged HNF1A (from UniProt P20823 1-631)”, in assay [1], the binding result is listed as “no binding (condition: with benzonase treatment)”.

B1: HA-tagged HNF1A, P20823 1-631 (protein)
chain: T1 chain
Regarding B1, the binding entry in assay [2] is reported as “binds”.
